Four substances from patent US5948759A (Nycomed Imaging AS, priority 1994, dated 1999) can be followed below.

This data set can be described thus: general procedure: Fmoc solid-phase peptide synthesis; Fmoc-Thr(But)-TentaGel ACS resin (2-methoxy-4-alkoxybenzyl alcohol handle; Rapp Polymere). As to conditions: for final HPLC purity: 215 nm.
Setting [1] is: whole synthesis, scale 0.1 mmol.

Regarding “Abu^91,98,102,112,114,127 -[FVII Glu^82 -Thr^128 ]”, the “final HPLC purity” value (whole synthesis, scale of the general procedure 0.1 mmol) stood at 96%. Under setting [1], this substance showed a crude mass of 13 mg and an isolated mass of 2.0 mg.
On to “Disulphide-cyclo [Cys^91 -Cys^102 ]-Abu^98,112,114,127 -[FVII Glu^82 -Thr^128 ]”, for which the “final HPLC purity” value (oxidative folding step) is given as 95%.
Turning to “Disulphide-cyclo [Cys^91 -Cys^102,Cys^98 -Cys^112,Cys^114 -Cys^127 ]-[FVII Glu^82 -Thr^128 ]”, the “final HPLC purity” value (oxidative folding step) was determined as 95%.
On to “Disulphide-cyclo [Cys^114 -Cys^127 ]-Abu^91,98,102,112, -[FVII Glu^82 -Thr^128 ]”, for which the “final HPLC purity” value (oxidative folding step) came out at 92%.
